Data as given in patent US20250243271A1.
No constants are given. Whether binding was seen depends on the method and setting. Some binding calls cover weakened binding; strength is not graded here.

Chains of the proteins cited; added tags and fusions are not shown. Lines headed by an entry give the natural chain unless they say otherwise; changes in a name come on top.
UniProt Q99466: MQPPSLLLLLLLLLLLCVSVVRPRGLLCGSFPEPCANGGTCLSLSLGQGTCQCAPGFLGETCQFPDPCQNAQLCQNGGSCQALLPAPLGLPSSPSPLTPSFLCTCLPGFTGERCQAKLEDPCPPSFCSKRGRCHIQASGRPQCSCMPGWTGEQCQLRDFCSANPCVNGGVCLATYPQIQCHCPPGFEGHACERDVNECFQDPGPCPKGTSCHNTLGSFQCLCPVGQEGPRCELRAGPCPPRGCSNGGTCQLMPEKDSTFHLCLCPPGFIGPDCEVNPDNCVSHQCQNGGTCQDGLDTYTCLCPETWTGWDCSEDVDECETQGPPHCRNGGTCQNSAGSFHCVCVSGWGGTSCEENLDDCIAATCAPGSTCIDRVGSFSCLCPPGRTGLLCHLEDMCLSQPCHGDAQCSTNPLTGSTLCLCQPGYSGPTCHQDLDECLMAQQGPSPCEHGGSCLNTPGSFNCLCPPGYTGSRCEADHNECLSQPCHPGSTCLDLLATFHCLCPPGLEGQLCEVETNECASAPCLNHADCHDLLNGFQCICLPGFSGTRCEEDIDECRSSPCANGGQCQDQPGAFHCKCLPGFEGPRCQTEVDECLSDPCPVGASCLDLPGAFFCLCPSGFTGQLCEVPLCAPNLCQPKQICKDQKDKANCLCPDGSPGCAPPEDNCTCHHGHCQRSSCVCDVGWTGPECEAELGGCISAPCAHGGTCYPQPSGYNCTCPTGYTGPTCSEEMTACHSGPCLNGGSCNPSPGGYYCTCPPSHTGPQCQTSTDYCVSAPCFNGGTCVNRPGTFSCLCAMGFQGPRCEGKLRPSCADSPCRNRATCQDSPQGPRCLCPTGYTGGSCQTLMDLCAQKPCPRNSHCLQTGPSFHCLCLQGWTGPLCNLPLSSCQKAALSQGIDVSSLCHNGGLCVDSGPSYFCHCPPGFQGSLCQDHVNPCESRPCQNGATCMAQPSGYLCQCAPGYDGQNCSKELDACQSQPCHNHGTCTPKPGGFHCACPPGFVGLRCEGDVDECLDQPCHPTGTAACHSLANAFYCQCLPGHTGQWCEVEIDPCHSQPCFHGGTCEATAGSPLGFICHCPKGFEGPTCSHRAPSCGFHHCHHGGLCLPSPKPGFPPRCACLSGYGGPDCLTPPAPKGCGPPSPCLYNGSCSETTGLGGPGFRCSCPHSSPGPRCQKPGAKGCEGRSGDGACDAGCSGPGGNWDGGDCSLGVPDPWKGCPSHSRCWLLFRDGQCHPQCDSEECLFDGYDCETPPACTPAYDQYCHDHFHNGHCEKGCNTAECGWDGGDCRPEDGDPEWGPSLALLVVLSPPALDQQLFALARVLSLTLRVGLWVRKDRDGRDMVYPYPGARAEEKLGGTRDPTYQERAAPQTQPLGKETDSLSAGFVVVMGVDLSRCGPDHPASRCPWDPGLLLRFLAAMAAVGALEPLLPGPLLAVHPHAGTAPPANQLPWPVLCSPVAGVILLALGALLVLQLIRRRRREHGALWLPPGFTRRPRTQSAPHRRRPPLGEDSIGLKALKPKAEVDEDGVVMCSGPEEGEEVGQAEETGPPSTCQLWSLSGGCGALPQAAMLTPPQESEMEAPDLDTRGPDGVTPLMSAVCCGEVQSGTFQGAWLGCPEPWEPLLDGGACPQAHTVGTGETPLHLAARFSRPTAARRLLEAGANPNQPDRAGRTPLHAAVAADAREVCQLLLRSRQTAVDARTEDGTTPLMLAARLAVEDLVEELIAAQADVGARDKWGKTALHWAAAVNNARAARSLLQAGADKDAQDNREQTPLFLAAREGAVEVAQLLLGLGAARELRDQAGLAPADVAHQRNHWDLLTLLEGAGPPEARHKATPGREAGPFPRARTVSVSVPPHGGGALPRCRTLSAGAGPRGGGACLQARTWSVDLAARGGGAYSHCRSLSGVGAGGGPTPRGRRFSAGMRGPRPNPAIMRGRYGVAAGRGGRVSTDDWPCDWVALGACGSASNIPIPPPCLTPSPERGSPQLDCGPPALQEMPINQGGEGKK

Tests used:
[1] = target: Recombinant human Notch4 (human) (UniProt Q99466); test: competition ELISA on Notch4 with or without MHN4-2, absorbance at 450 nm
[2] = target: Recombinant human Notch4 (human) (UniProt Q99466); test: ELISA, absorbance at 450 nm
[3] = target: Recombinant human Notch4 (human) (UniProt Q99466); test: ELISA, absorbance at 450 nm, single condition, antibody concentration not given
[4] = target: Recombinant human Notch4 (human) (UniProt Q99466); test: competition (epitope binning) ELISA on Notch4 antigen with or without the mouse antibody MHN4-2, absorbance at 450 nm

Measured: binding

B1: H07-Lib3-Pl1 (antibody, V domains shown)
VH: EVQLVESGGGLVQPGGSLRLSCAASGLPFSSYAMSWVRQAPGKGLELVASIGTAGDAYYPDSVKGRFTISRDNAKNSLYLQMNSLRAEDTAVYYCARVGPFWQGFAFDIWGQGTMVTVSS
VL: DIVMTQSPLSLPVTPGEPASISCRSSQSLLHSSGHNYLHWYLQKPGQSPQLLIYMTYNRASGVPDRFSGSGSGTDFTLKISRVEAEDVGVYYCLQTTHWPHTFGGGTKVEIK
binds: [1] | [2] | [3] | [4]
